The text below walks through data of the supplement of paper PMC7125110.

± gives the standard error. The uncertainty is large for many entries.

First the molecules themselves.
B1: glmS ribozyme (parent)
chain: AUAAAAGCGCCAGAACUACAGAAAUGUAGUUGACGAGGAGGAGGUUUAUCGAAUUUUCGGCGGAUGCCUCCAAA

The first series covers variants of B1. Put plainly: kcat; higher = faster cleavage; RNA array. As to conditions: with glucosamine-6-phosphate. A digest of the protocol:
(§1)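 Glucosamine-6-phosphate (40 μM to 10 mM) in HEPES/KCl/Mg(OAc)2 buffer was flowed over sequenced MiSeq chips, and tiles were imaged over ~14 h. Barcoded ribozyme variants there had been transcribed in situ by E. coli RNA polymerase and were tracked through a hybridised Cy3 probe at 37 °C. One- or two-exponential decay fits to per-tile medians, normalised to baseline and to non-cleaving reference variants, gave kobs. kcat and KM came from weighted Michaelis–Menten fits across concentrations.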
Turning to AUAAAAGCGACAGAACUACAGAAAUGUAGUUGACGAGGAGGAGGUUUAUCGAAUUUUCGGCGGAUGCCUACAAA [C10A C70A], the kcat is 4.61e-05 ± 2.5e-05 s⁻¹.
On to ACAAAAGCGCCAGAACUACAGAAAUGUAGUUGACGAGGAGGAGGUUUAUCGAAUUUUCGGCGGAUGCCUCCAAA [U2C], for which the kcat was determined as 0.0171 ± 0.011 s⁻¹.
Still for that read-out and setting: for AUAAAAGCGCCAAAACUACAGAAAUGUAGUUGACGAGGAGGAGGUUUAUGGAAUUUUCGGCGGAUGCCUCCAAA [G13A C50G] the value was 4.75e-05 ± 2.8e-05 s⁻¹; for AUAAAAGCGCAAGAACUACAGAAAUGUAGAUGACGAGGAGGAGGGUUAUCGAAUUUUCGGCGGAUGCCUCCAAA [C11A U30A U45G], 2.81e-05 ± 1.1e-06 s⁻¹.
On the same count and under the same terms, the same measure for AUAAAAGCGCAAGAACUACAGAAAUGUAGUUGACGAGGAGGAGGUUUAUCGAAUUAUCGGCGGAUGCCUCCAAA [C11A U56A]: 0.000143 ± 1.9e-06 s⁻¹; for AUAAAAGCGCCCGAACUACAGAAAUGUAGUUGACGAGGAGGAGGUUUAUCGAAUUAUCGGCGGCUGCCUCCAAA [A12C U56A A64C]: 2.44e-05 ± 1.3e-05 s⁻¹.
Same read-out and setting: the same measure for AUAAAAGCGACAGAACUACAGAAAUGUAGUUGACGAGGAGGAGGUUUAUCGAAUUUUCGGCGGAUGACUCCAAA [C10A C67A]: 1.61e-05 ± 1.2e-05 s⁻¹; for AUAAAAGCGCUAGAACUACAGAAAUGUAGUUGACGAGGAGGAGGUUUAUCGAAUUUUCGGCGGAAGCCUCUAAA [C11U U65A C71U]: 0.000194 ± 1.4e-05 s⁻¹; for AUAAAAGCGUCAGAACUACAGAAAUGUAGUUGACGAGGAGGAGGUUUAUCGAAUUUUCGGCGGAUGCCUCAAAA [C10U C71A]: 1.16e-05 ± 6.3e-06 s⁻¹.
As for AUAAAAGCGCUAGAACUACAGAAAUGUAUUUGACGAGGAGGAGGUUUAUCGAAAUUUCGGCGGAUGCCUCCAAA [C11U G29U U54A], the kcat stood at 0.00045 ± 0.00029 s⁻¹.
The same measure, in the same setting: for AUAAAAGCGACAGAACUACAGAAAUGUAGUUGACGAGGAGGAGGUUUAUCGAAUUUUCGGCGGAUGCCACCAAA [C10A U69A] the value was 6.07e-05 ± 3.2e-05 s⁻¹; for AUAAAAGCGACAGAACUACAGAAAUGUAGUUGAUGAGGAGGAGAUUUAUCGAAUUUUCGGCGGAUGCCUACAAA [C10A C34U G44A C70A], 3.25e-05 ± 2.3e-05 s⁻¹.
On the same count and under the same terms, the same measure for AUAAAAGCGCCUGAACUACAGAAAUGUAGUUGACGAGGAGGAGGUUUAUCGAAUUUUCGGCGGAUGCCUCAAAA [A12U C71A]: 0.0145 ± 0.013 s⁻¹.
Consider AUAAAAGCGCGAGAACUACAGAAAUGUAGUUGACGAGGAGGAGGUUUAUCGAAUUUUCGGCGGAUGCCGCCAAA [C11G U69G], for which the kcat was determined as 6.17e-05 ± 3.2e-05 s⁻¹.
On the same count and under the same terms, for AUAAAACCGCCAGGACUACAGAAAUGUAGUUGACGAGGAGGAGGUUUAUCGAAUUUUCGGCGGAUGCCUCCAAA [G7C A14G] the value was less than 1e-05 s⁻¹; for AUAAAAGCGCUAGAUCUACAGAAAUGUAGUUGACGAGGAGGAGGUUUAUCGAAUUUGUGGCGGAUGUCUCCAAA [C11U A15U U57G C58U C67U], 4.57e-05 ± 3.3e-05 s⁻¹; for AUAAAAGCGCCGGAACUACAGAAAUGUAGUAUACGAGGAGGAGGUUUAUCGAAUUUUCGGCGGAUGCCUCCAAA [A12G U31A G32U], 6.44e-05 ± 1.1e-06 s⁻¹.
Consider AUAAAAGCGCCGGAACUACAGAAAUGUAGUUGACGAGGAGGAGAUUUAUCGAAUUUUCGGCGGAUGCCUCCAAA [A12G G44A], for which the kcat was found to be 2.03e-05 ± 1e-05 s⁻¹.
Still for that read-out and setting: for AUAAAAGCGCGAGAACUACAGAAAUGUAGUUGACGAGGAGGAGGUUUAUCGAAUUUUUGGCGGAUGCCUCCAAA [C11G C58U] the value was 1.49e-05 ± 8e-06 s⁻¹.

The variants in the next series derive from B1. Put plainly: self-cleavage kobs at 10000 uM GlcN6P; higher = faster cleavage; RNA array. As to conditions: with glucosamine-6-phosphate. The method in brief:
as §1
For AUAAAAGCGACAGAACUACAGAAAUGUAGUUGACGAGGAGGAGGUUUAUCGAAUUUUCGGCGGAUGCCUACAAA [C10A C70A], the “self-cleavage kobs at 10000 uM GlcN6P” value was 1.96e-05 ± 1.1e-05 s⁻¹.
The same measure, in the same setting: the same measure for AUAAAAGCGCCCGAACUACAGAAAUGUAGUUGACGAGGAGGAGGUUUAUCGAAUUAUCGGCGGCUGCCUCCAAA [A12C U56A A64C]: 3.13e-05 ± 1.6e-05 s⁻¹; for AUAAAAGCGCGAGAACUACAGAAAUGUAGUUGACGAGGAGGAGGUUUAUCGAAUUUUCGGCGGAUGCCGCCAAA [C11G U69G]: 2.05e-05 ± 1.2e-05 s⁻¹; for AUAAAAGCGCUAGAUCUACAGAAAUGUAGUUGACGAGGAGGAGGUUUAUCGAAUUUGUGGCGGAUGUCUCCAAA [C11U A15U U57G C58U C67U]: 2.06e-05 ± 1.8e-05 s⁻¹.
Still for that read-out and setting: for AUAAAAGCGCCGGAACUACAGAAAUGUAGUUGACGAGGAGGAGAUUUAUCGAAUUUUCGGCGGAUGCCUCCAAA [A12G G44A] the value was 1.39e-05 ± 1.2e-05 s⁻¹.

In a further series the parent is B1. The series can be described thus: KM; higher = weaker cofactor use; RNA array. As to conditions: with glucosamine-6-phosphate. A digest of the protocol: as §1
In the case of ACAAAAGCGCCAGAACUACAGAAAUGUAGUUGACGAGGAGGAGGUUUAUCGAAUUUUCGGCGGAUGCCUCCAAA [U2C], the KM was found to be 0.717 ± 0.63 mM.
In the case of AUAAAAGCGCAAGAACUACAGAAAUGUAGAUGACGAGGAGGAGGGUUAUCGAAUUUUCGGCGGAUGCCUCCAAA [C11A U30A U45G], the KM was determined as 3.69 ± 0.41 mM.
Same read-out and setting: for AUAAAAGCGCAAGAACUACAGAAAUGUAGUUGACGAGGAGGAGGUUUAUCGAAUUAUCGGCGGAUGCCUCCAAA [C11A U56A] the value was 2.09 ± 0.078 mM.
Take AUAAAAGCGCUAGAACUACAGAAAUGUAGUUGACGAGGAGGAGGUUUAUCGAAUUUUCGGCGGAAGCCUCUAAA [C11U U65A C71U]: the KM came out at 3.61 ± 0.47 mM.
Consider AUAAAAGCGCCGGAACUACAGAAAUGUAGUAUACGAGGAGGAGGUUUAUCGAAUUUUCGGCGGAUGCCUCCAAA [A12G U31A G32U], for which the KM worked out at 5.79 ± 0.24 mM.

The next series covers variants of B1. Put plainly: self-cleavage kobs at 40 uM GlcN6P; higher = faster cleavage; RNA array. As to conditions: with glucosamine-6-phosphate. The method in brief: as §1
On to AUAAAAGCGCCAAAACUACAGAAAUGUAGUUGACGAGGAGGAGGUUUAUGGAAUUUUCGGCGGAUGCCUCCAAA [G13A C50G], for which the “self-cleavage kobs at 40 uM GlcN6P” value came out at 3.31e-05 ± 2.2e-05 s⁻¹.
Still for that read-out and setting: the same measure for AUAAAAGCGACAGAACUACAGAAAUGUAGUUGACGAGGAGGAGGUUUAUCGAAUUUUCGGCGGAUGCCACCAAA [C10A U69A]: 2.2e-05 ± 1.9e-05 s⁻¹.
With AUAAAAGCGACAGAACUACAGAAAUGUAGUUGAUGAGGAGGAGAUUUAUCGAAUUUUCGGCGGAUGCCUACAAA [C10A C34U G44A C70A], the “self-cleavage kobs at 40 uM GlcN6P” value amounted to 3.03e-05 ± 2.8e-05 s⁻¹.
On the same count and under the same terms, the same measure for AUAAAAGCGCUAGAUCUACAGAAAUGUAGUUGACGAGGAGGAGGUUUAUCGAAUUUGUGGCGGAUGUCUCCAAA [C11U A15U U57G C58U C67U]: 2.89e-05 ± 2e-05 s⁻¹.

In the next series the parent is B1. Put plainly: self-cleavage kobs at 2500 uM GlcN6P; higher = faster cleavage; RNA array. As to conditions: with glucosamine-6-phosphate. The method in brief:
as §1
Turning to AUAAAAGCGCCCGAACUACAGAAAUGUAGUUGACGAGGAGGAGGUUUAUCGAAUUAUCGGCGGCUGCCUCCAAA [A12C U56A A64C], the “self-cleavage kobs at 2500 uM GlcN6P” value stood at 1.69e-05 ± 9.1e-06 s⁻¹.

Variants of B1 are the subject of the next series. The series can be described thus: self-cleavage kobs at 640 uM GlcN6P; higher = faster cleavage; RNA array. As to conditions: with glucosamine-6-phosphate. The method in brief: as §1
Consider AUAAAAGCGACAGAACUACAGAAAUGUAGUUGACGAGGAGGAGGUUUAUCGAAUUUUCGGCGGAUGACUCCAAA [C10A C67A], for which the “self-cleavage kobs at 640 uM GlcN6P” value came out at 0.000698 ± 0.00046 s⁻¹.
Same read-out and setting: for AUAAAAGCGACAGAACUACAGAAAUGUAGUUGAUGAGGAGGAGAUUUAUCGAAUUUUCGGCGGAUGCCUACAAA [C10A C34U G44A C70A] the value was 9.27e-05 ± 5.4e-05 s⁻¹.

Variants of B1 are the subject of the next series. Put plainly: self-cleavage kobs at 160 uM GlcN6P; higher = faster cleavage; RNA array. As to conditions: with glucosamine-6-phosphate. A digest of the protocol:
as §1
Take AUAAAAGCGACAGAACUACAGAAAUGUAGUUGACGAGGAGGAGGUUUAUCGAAUUUUCGGCGGAUGCCACCAAA [C10A U69A]: the “self-cleavage kobs at 160 uM GlcN6P” value turned out to be 3.26e-05 ± 2.1e-05 s⁻¹.
Same read-out and setting: the same measure for AUAAAAGCGCUAGAUCUACAGAAAUGUAGUUGACGAGGAGGAGGUUUAUCGAAUUUGUGGCGGAUGUCUCCAAA [C11U A15U U57G C58U C67U]: 2.64e-05 ± 1.7e-05 s⁻¹.

By kcat is commonly meant the maximal rate divided by the concentration of active sites. The KM is the substrate concentration at which the rate is half of its maximum.
